What all share (assay): EMSA
For orientation: A gel shift assay detects complexes by their altered migration in electrophoresis.

The chains behind the UniProt entries cited, without tags or fusion partners. Residues count along the entry.
UniProt P54098, 26-1239 G303R: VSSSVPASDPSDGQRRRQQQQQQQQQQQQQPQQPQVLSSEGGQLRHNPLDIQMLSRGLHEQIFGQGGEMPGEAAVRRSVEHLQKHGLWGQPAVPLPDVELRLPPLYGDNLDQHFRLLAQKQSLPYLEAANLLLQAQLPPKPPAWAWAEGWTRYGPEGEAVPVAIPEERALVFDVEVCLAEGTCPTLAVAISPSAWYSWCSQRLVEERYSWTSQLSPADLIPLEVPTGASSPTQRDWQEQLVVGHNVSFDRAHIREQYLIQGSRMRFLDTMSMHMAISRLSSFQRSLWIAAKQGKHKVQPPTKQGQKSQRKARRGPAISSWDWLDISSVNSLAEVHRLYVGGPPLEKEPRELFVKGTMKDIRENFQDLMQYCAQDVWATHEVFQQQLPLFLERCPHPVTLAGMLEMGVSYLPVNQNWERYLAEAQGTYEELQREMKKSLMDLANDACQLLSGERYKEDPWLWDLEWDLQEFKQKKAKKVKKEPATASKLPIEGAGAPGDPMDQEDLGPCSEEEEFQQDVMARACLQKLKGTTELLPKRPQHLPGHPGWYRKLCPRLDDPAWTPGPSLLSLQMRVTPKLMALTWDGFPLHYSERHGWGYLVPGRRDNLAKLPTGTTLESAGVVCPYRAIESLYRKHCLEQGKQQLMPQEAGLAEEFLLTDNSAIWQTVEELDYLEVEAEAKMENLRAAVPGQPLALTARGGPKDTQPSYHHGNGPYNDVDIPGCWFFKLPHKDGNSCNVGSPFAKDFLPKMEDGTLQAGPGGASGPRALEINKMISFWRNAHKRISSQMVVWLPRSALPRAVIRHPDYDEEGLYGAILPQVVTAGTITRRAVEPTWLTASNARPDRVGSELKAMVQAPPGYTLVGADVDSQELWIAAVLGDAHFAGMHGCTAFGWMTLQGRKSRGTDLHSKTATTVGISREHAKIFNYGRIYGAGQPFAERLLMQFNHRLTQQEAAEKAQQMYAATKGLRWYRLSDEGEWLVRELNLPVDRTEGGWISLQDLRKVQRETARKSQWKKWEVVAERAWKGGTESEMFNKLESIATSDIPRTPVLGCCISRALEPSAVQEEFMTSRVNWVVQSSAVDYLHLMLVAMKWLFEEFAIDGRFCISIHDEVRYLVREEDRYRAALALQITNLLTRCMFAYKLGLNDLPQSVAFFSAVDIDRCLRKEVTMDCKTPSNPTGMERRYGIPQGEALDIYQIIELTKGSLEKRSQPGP
UniProt P54098, 26-1239 L304R: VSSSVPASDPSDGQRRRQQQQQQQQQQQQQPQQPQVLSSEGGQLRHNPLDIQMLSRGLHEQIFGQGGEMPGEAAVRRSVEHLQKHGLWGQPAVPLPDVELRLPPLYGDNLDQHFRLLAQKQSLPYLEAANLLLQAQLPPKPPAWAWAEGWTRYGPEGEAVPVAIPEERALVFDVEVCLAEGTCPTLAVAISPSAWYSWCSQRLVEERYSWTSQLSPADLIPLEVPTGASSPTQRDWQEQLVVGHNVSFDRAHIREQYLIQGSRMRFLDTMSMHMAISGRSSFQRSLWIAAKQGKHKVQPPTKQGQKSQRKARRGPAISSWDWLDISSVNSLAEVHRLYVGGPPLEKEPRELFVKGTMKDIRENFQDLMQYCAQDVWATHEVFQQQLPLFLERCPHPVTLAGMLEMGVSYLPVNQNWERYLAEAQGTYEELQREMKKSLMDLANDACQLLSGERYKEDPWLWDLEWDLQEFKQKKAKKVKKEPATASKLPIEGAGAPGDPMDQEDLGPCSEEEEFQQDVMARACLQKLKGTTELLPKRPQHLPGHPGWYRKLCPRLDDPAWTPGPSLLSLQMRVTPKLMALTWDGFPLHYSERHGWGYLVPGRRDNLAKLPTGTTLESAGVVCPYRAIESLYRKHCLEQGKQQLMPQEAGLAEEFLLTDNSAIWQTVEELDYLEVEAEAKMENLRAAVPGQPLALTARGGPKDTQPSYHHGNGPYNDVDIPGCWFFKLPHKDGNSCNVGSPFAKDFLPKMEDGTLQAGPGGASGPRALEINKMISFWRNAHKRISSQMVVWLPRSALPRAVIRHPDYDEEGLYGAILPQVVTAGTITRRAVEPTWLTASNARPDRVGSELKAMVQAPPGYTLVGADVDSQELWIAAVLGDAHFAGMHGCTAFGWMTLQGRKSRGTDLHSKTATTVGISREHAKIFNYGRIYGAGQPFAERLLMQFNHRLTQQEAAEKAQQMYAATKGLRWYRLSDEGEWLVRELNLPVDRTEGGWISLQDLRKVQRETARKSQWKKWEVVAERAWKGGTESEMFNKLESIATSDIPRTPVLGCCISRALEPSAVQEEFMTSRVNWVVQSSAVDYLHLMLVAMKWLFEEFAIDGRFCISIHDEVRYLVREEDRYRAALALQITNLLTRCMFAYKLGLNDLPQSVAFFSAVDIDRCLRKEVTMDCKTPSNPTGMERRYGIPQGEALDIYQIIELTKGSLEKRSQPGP
UniProt P54098, 26-1239 R275Q: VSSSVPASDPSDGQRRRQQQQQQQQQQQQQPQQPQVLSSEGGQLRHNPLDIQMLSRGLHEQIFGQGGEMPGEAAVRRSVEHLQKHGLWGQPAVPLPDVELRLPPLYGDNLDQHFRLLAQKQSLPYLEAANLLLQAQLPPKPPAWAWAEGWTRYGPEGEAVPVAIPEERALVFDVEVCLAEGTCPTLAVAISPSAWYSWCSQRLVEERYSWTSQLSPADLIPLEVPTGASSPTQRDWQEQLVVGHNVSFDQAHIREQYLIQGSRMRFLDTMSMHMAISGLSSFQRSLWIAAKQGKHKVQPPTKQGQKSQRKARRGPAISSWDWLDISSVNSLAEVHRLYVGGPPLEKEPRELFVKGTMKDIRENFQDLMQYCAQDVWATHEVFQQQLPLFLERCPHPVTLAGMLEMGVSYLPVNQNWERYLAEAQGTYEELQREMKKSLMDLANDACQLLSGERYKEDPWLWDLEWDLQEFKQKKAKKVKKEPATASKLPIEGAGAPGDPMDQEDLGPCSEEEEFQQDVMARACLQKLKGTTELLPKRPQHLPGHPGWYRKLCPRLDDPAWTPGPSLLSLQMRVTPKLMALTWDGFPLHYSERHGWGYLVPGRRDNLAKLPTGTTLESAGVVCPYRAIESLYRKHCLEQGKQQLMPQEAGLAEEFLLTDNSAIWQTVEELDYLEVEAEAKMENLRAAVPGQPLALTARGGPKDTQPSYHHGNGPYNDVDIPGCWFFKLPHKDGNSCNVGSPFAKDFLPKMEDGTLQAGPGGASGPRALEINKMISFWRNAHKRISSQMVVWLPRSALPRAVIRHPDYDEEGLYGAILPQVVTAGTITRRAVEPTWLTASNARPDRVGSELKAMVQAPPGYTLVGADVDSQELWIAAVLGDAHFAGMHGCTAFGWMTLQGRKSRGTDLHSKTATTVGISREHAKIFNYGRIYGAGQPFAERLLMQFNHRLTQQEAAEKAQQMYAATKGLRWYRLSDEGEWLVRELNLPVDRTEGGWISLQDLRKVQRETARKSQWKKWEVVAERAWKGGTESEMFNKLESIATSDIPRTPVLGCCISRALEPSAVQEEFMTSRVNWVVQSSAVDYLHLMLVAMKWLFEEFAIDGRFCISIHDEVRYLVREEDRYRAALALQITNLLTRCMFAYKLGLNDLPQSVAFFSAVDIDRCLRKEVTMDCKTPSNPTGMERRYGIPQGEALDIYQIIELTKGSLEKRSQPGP
UniProt P54098, 26-1239 S305R: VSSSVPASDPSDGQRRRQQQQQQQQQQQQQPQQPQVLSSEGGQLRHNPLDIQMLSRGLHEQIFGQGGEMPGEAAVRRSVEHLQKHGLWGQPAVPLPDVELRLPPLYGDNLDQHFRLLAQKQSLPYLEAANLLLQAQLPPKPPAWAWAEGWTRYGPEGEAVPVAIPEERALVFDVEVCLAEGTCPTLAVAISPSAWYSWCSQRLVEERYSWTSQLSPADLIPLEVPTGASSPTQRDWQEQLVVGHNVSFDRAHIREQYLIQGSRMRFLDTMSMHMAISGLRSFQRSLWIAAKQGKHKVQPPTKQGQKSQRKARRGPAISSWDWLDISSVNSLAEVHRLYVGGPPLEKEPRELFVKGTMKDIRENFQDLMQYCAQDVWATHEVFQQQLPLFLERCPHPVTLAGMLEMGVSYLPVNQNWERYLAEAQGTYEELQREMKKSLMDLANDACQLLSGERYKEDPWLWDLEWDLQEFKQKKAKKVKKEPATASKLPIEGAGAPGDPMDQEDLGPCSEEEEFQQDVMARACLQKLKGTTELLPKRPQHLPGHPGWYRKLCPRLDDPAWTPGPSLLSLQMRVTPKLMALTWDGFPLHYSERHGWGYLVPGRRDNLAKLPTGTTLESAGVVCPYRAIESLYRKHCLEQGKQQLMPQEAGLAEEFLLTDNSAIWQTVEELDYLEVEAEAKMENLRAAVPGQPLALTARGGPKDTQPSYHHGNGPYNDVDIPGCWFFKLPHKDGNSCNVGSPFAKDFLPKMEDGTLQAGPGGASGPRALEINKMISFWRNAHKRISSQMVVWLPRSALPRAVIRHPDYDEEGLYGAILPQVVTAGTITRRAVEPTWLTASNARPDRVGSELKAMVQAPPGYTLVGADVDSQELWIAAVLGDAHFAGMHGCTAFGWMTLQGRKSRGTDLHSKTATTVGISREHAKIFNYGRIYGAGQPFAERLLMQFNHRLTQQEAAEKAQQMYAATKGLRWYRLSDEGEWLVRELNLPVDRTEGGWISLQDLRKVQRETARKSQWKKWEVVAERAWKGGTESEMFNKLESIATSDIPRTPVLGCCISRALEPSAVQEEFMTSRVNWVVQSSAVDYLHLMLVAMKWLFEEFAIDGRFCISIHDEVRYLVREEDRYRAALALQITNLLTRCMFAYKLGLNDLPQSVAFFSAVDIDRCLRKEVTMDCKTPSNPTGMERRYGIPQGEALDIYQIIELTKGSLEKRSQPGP
UniProt P54098, 26-1239: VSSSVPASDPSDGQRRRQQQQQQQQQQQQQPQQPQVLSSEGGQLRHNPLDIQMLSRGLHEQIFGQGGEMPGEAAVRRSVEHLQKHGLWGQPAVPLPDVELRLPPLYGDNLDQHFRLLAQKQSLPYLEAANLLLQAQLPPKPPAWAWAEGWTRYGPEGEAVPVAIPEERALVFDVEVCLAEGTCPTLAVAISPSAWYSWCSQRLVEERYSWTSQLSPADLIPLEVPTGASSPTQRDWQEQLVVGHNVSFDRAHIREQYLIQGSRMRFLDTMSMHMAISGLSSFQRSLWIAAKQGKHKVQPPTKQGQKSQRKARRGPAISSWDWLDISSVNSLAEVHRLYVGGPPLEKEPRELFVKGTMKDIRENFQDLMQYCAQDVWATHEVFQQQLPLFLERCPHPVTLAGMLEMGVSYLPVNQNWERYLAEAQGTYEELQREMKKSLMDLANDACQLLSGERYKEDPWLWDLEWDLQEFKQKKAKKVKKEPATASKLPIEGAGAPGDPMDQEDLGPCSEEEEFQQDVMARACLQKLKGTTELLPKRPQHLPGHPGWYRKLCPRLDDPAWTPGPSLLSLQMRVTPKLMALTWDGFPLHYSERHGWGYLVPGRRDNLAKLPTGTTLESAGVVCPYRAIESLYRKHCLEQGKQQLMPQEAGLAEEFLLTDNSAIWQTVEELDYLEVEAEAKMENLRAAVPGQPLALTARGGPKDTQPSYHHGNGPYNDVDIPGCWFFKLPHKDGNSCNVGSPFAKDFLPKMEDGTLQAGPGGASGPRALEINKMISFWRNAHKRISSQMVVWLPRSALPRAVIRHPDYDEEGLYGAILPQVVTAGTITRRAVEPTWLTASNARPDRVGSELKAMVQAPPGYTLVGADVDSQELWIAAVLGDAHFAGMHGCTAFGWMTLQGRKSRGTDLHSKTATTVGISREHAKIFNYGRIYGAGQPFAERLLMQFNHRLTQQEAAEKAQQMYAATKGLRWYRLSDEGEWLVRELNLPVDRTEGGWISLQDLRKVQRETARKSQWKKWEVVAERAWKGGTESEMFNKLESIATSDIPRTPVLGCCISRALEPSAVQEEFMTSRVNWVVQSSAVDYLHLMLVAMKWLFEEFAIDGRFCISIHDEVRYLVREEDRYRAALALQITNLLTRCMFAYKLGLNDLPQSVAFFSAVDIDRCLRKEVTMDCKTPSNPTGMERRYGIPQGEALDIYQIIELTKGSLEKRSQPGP

One data set concerns the target POLγA G303R (UniProt P54098). Conditions: no POLγB, 10 mM Mg2+, 3 mM dCTP, 0.3 mM ddGTP, EMSA: 15 µl, 10 fmol DNA, 450 fmol POLγA, 1.8 pmol POLγB where indicated, 20 mM Tris-HCl pH 7.5, 1 mM DTT, 0.1 mg/ml BSA, 10 mM MgCl2, 10% glycerol, recombinant protein, protein details: C-terminal 6xHis, label: 5'-32P on S6.
Another data set concerns the target POLγA L304R (UniProt P54098). Conditions: no POLγB, 10 mM Mg2+, 3 mM dCTP, 0.3 mM ddGTP, EMSA: 15 µl, 10 fmol DNA, 450 fmol POLγA, 1.8 pmol POLγB where indicated, 20 mM Tris-HCl pH 7.5, 1 mM DTT, 0.1 mg/ml BSA, 10 mM MgCl2, 10% glycerol, recombinant protein, protein details: C-terminal 6xHis, label: 5'-32P on S6.
The target of the next data set is POLγA R275Q (UniProt P54098). Conditions: no POLγB, 10 mM Mg2+, 3 mM dCTP, 0.3 mM ddGTP, EMSA: 15 µl, 10 fmol DNA, 450 fmol POLγA, 1.8 pmol POLγB where indicated, 20 mM Tris-HCl pH 7.5, 1 mM DTT, 0.1 mg/ml BSA, 10 mM MgCl2, 10% glycerol, recombinant protein, protein details: C-terminal 6xHis, label: 5'-32P on S6.
The target of another data set is POLγA S305R (UniProt P54098). To be noted: no POLγB, 10 mM Mg2+, 3 mM dCTP, 0.3 mM ddGTP, EMSA: 15 µl, 10 fmol DNA, 450 fmol POLγA, 1.8 pmol POLγB where indicated, 20 mM Tris-HCl pH 7.5, 1 mM DTT, 0.1 mg/ml BSA, 10 mM MgCl2, 10% glycerol, recombinant protein, protein details: C-terminal 6xHis, label: 5'-32P on S6.
In a further data set the target is POLγA WT (UniProt P54098). To be noted: no POLγB, 10 mM Mg2+, 3 mM dCTP, 0.3 mM ddGTP, EMSA: 15 µl, 10 fmol DNA, 450 fmol POLγA, 1.8 pmol POLγB where indicated, 20 mM Tris-HCl pH 7.5, 1 mM DTT, 0.1 mg/ml BSA, 10 mM MgCl2, 10% glycerol, recombinant protein, protein details: C-terminal 6xHis, label: 5'-32P on S6.
The next data set has as its system POLγA WT + POLγB. To be noted: with POLγB, 10 mM Mg2+, 3 mM dCTP, 0.3 mM ddGTP, EMSA: 15 µl, 10 fmol DNA, 450 fmol POLγA, 1.8 pmol POLγB where indicated, 20 mM Tris-HCl pH 7.5, 1 mM DTT, 0.1 mg/ml BSA, 10 mM MgCl2, 10% glycerol, recombinant protein, protein details: C-terminal 6xHis,C-terminal 6xHis, label: 5'-32P on S6.

For at least one entry, the source does not settle the construct or the ends of the probe. For part of these data: A weaker result is weaker than the reference pair of the same experiment. For part of these data: At least one verdict rests on a figure or table, not on a statement of the authors.

The values below come from article PMC4557304.

For the sequence “CGGTCGAGTCTAGAGGAGCC / GACTACGTCTATCCGGGCTCCTCTAGACTCGACCG [primed DNA template (20/35-mer)]”, the binding result with POLγA G303R is listed as “binds more weakly”; with POLγA L304R, “binds more weakly”; in the data set with POLγA R275Q, “binds more weakly”; with POLγA S305R it was “binds more weakly”; with POLγA WT it was “binds”; in the data set with POLγA WT + POLγB, “binds”.
